Assay results: patent US20260153494A1 (AGRICUL TURAL UNIVERSITY OF ATHENS, priority 2023, published 2026)
The name of at least one read-out is uncertain.

Assays:
Type in all cases: biochemical
[1] = test system: FGGsh155 (phi class glutathione S-transferase GSTF mutant sh155, derived by DNA shuffling, with N-terminal FGG tag, SEQ ID NO: 2); conditions: GSH at fixed concentration; 0.1 M KH2PO4, pH 6.5, 37° C.; read-out: S0.5 CDNB
Description: (§1) GST activity assays were carried by using the 1-chloro-2,4-dinitrobenzene (CDNB)/glutathione (GSH) substrate system as described previously (Axarli et al., 2017; Georgakis et al., 2020). Determination of enzyme activity was conducted using 1 mM CDNB and 2.5 mM GSH final concentration in 0.1 M KH2PO4, PH 6.5 and 37° C. Kinetic analysis of the potential supramolecular protein complexes was performed as previously described (Axarli et al., 2016, Georgakis et al., 2020) five days after addition of CB[8] to the enzyme solution in 1:1 stoichiometry. Protein precipitates were removed by centrifugation at 10,000 rpm for 10 min prior to the analysis. The steady state data were processed using GraphPad Prism version 7 (GraphPad Prism Software, Inc.). Turnover numbers were evaluated for one active site per subunit of enzyme. Specific activity (SA) was estimated in micromoles per minute per milligram of protein (μmol min-1 mg-1). Determination of protein concentration was carried using the Bradford assay with bovine serum albumin as standard (Bradford, 1976).
(§2) The kinetic parameters of FGGsh101 and FGGsh155 were analyzed both in absence of CB[8] and five days after the addition of the macrocyclic host in 1:1 ratio. […] (see Example 3)

[2] = test system: FGGsh101 (phi class glutathione S-transferase GSTF mutant sh101, derived by DNA shuffling, with N-terminal FGG tag, SEQ ID NO: 1); conditions: GSH at fixed concentration; 0.1 M KH2PO4, pH 6.5, 37° C.; read-out: S0.5 CDNB
Description: as §1, §2

[3] = test system: FGGsh101:CB[8] (FGG-tagged phi class glutathione S-transferase GSTF mutant sh101, SEQ ID NO: 1, with cucurbit[8]uril 1:1); conditions: GSH at fixed concentration; five days after CB[8] addition 1:1; pH 6.5, 37° C.; read-out: S0.5 CDNB
Description: as §1, §2

[4] = test system: FGGsh155:CB[8] hexamer (FGG-tagged phi class glutathione S-transferase GSTF mutant sh155, SEQ ID NO: 2, with cucurbit[8]uril 1:1); conditions: free enzyme; GSH at fixed concentration; five days after CB[8] addition 1:1; pH 6.5, 37° C.; read-out: S0.5 CDNB
Description: as §1, §2

[5] = test system: Immobilized FGGsh155:CB[8] hexamer (GSTF mutant sh155, FGG-tagged, SEQ ID NO: 2, with cucurbit[8]uril 1:1, on glutaraldehyde-crosslinked chitosan); conditions: GSH 2.5 mM, 20 mM KH2PO4, pH 7.0, 37° C., read-out: S0.5 CDNB
Description: Initially, 2%, 3% and 4% (w/v) medium molecular weight chitosan (molecular weight of 190 to 310 kDa) was dissolved by continuous stirring in 2% (v/v) acetic acid. The formed chitosan gels were stored at 4° C. until the following day (12 to 24 hours) in order to remove any trapped air. For the immobilisation, 180 mg of chitosan gel were deposited by a syringe at the bottom of a cuvette with 4 mL capacity. Then 50 μL of different concentrations of GA solution [0.4%, 0.5%, 0.6%, 0.7%, and 1% (v/v)] were added and the mixture was lightly stirred with a pipette tip. The carrier mixture was left for an hour so that the reaction of GA binding to the amino groups of the carrier was accomplished. GA was diluted in 20 mM KH2PO4, PH 7.0. Afterwards, the carrier was washed thrice with 2 mL 20 mM KH2PO4, PH 7, in order to remove any unbound GA molecules. […]
Determination of the enzyme activity for the immobilised enzyme complex FGGsh155:CB[8] was performed using the CDNB/GSH substrate system with 20 mM KH2PO4, PH 7, as a reaction solution at 37° C., as has been previously described (Georgakis et al., 2020a; Axarli et al., 2017; Cho et al., 2005). The rate assay was recorded for 300 s at 340 nm. […]
The kinetic parameters of the immobilized FGGsh155:CB[8] were calculated using the CDNB/GSH substrate system in 20 mM KH2PO4, PH 7.0, at 37° C. […]

`O=[N+]([O-])c1ccc(Cl)c([N+](=O)[O-])c1` [CDNB, 1-chloro-2,4-dinitrobenzene] was tested, and the Km [1] was 770 ± 70 µM, the Km [2] was 400 ± 20 µM and the Km [3] was 560 ± 60 µM. For the same molecule, the Km [4] was 810 ± 50 µM and the Km [5] was 1130 ± 120 µM.
